PubChem BioAssay AID1508588, Peter MacCallum Cancer Centre – 2020
Assay: 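Knock-downs boosting vemurafenib effects on melanoma cell growth or lactate release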 (primary screen). System: human WM266.4 melanoma cells (BRAF V600 mutant). Knock-down reagent: siRNA pool against human genes, 40 nM. Timing: 96 h from transfection to read-out. Challenge: vemurafenib 300 nM (about IC25), added 48 h after transfection, for 48 h; comparison arm got DMSO vehicle only. Read-out: 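Ratios to non-targeting siRNA for cell gain, counted as DAPI nuclei after minus before drug and averaged over two replicates, and for absorbance-read medium lactate per cell; both binned into fold-change classes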. Direction: cell gain with vemurafenib: higher = more cell gain than with non-targeting siRNA; lactate per cell with vemurafenib: higher = more lactate made per cell. Active means: 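Enhancement is called by pairing each knock-down's vehicle-arm and drug-arm fold-change classes for viability or glycolysis; which class combinations qualify is not given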. Calls: active = enhances vemurafenib effect; inactive = no enhancement seen.
Here is one part, drawn at random, of about 18,000 deposited reagents. 790 of them (4.4%) count as active. 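Calls rest on a combination of fold-change classes in drug and vehicle arms, not all shown here.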 Some reagents were tested in more than one well and are listed for each.

gene,cell gain with vemurafenib,lactate per cell with vemurafenib,call
TOR3A (GeneID 64222),0.29,2.4,inactive
RPGRIP1L (GeneID 23322),0.49,0.98,inactive
LYVE1 (GeneID 10894),0.49,0.59,inactive
MTOR (GeneID 2475),0.47,0.45,inactive
ACAP2 (GeneID 23527),0.83,0.65,inactive
FGGY (GeneID 55277),1.01,0.53,inactive
EEIG2 (GeneID 284611),0.75,0.86,inactive
DEFA1 (GeneID 1667),0.59,0.37,inactive
APOL5 (GeneID 80831),0.42,0.36,inactive
SSR1 (GeneID 6745),0.44,0.86,inactive
GM2A (GeneID 2760),0.63,1.26,inactive
SPRR2G (GeneID 6706),0.81,0.82,inactive
NUDT16L1 (GeneID 84309),0.42,0.79,inactive
B4GALT4 (GeneID 8702),0.79,0.78,inactive
ZNF69 (GeneID 7620),0.33,0.64,active
YIPF5 (GeneID 81555),0.69,0.8,inactive
OR10H4 (GeneID 126541),-0.14,2.75,inactive
FAM177B (GeneID 400823),0.21,1.36,inactive
PRTFDC1 (GeneID 56952),0.4,1.04,inactive
LHX6 (GeneID 26468),0.73,1.38,inactive
FBXO3 (GeneID 26273),0.47,0.62,active
FRG1 (GeneID 2483),0.46,0.47,active
XKR6 (GeneID 286046),0.51,0.98,inactive
TSR1 (GeneID 55720),0.74,1.02,inactive
MAP9 (GeneID 79884),0.67,0.8,inactive
PHLPP2 (GeneID 23035),0.54,1.12,inactive
TDRD3 (GeneID 81550),0.88,0.88,inactive
F3 (GeneID 2152),0.63,1.51,inactive
TRPS1 (GeneID 7227),0.79,1.45,inactive
NRAS (GeneID 4893),0.79,1.06,inactive
TMEM185A (GeneID 84548),0.5,1.18,inactive
ETV1 (GeneID 2115),1.2,0.98,inactive
EIF2AK3 (GeneID 9451),0.91,0.62,inactive
ASPN (GeneID 54829),0.8,0.81,inactive
SSX3 (GeneID 10214),0.41,0.8,inactive
LPA (GeneID 4018),0.19,0.71,inactive
APLP1 (GeneID 333),0.86,0.95,inactive
S100A9 (GeneID 6280),1.46,0.55,inactive
OR51A7 (GeneID 119687),0.65,0.71,inactive
TMOD1 (GeneID 7111),0.15,0.28,inactive
SCN2B (GeneID 6327),0.46,1.25,inactive
DDX59 (GeneID 83479),0.65,0.8,inactive
KAT2A (GeneID 2648),0.33,0.37,inactive
HAUS7 (GeneID 55559),0.21,2.42,inactive
OR51B6 (GeneID 390058),0.73,1.45,inactive
CT45A2 (GeneID 728911),0.4,1.02,inactive
BMP8A (GeneID 353500),0.74,0.81,inactive
RUNX2 (GeneID 860),0.46,0.6,inactive
SH2D6 (GeneID 284948),1.12,0.9,inactive
DNAJC17 (GeneID 55192),0.35,1.16,inactive
DLX4 (GeneID 1748),0.29,1.92,inactive
HMGA1 (GeneID 3159),0.55,0.44,inactive
HOXA11 (GeneID 3207),0.99,0.5,inactive
AOPEP (GeneID 84909),0.91,0.8,inactive
CAPRIN1 (GeneID 4076),0.16,2.97,inactive
BRINP3 (GeneID 339479),1.1,0.5,inactive
SNTB1 (GeneID 6641),0.69,0.69,inactive
FANCD2 (GeneID 2177),0.57,1.43,inactive
ST3GAL1 (GeneID 6482),0.51,1.8,inactive
TGFB2 (GeneID 7042),0.45,0.78,inactive
ESCO1 (GeneID 114799),0.31,1.79,inactive
GSTO1 (GeneID 9446),1,0.62,inactive
WNT2B (GeneID 7482),0.74,1.96,inactive
MT1G (GeneID 4495),0.36,1.66,inactive
DNAJC19 (GeneID 131118),0.28,1.32,inactive
POLR3B (GeneID 55703),0.97,1,inactive
IFNA17 (GeneID 3451),0.72,0.77,inactive
ZNF446 (GeneID 55663),0.56,1.22,inactive
PTPN2 (GeneID 5771),1.07,0.62,inactive
TRMT6 (GeneID 51605),0.56,1.71,inactive
IFT74 (GeneID 80173),0.68,0.58,inactive
MUC13 (GeneID 56667),0.58,1.4,inactive
AGPAT3 (GeneID 56894),0.65,1,inactive
STPG2 (GeneID 285555),1.14,0.53,inactive
PRAMEF10 (GeneID 343071),0.7,0.88,inactive
MCPH1 (GeneID 79648),0.6,1.72,inactive
MAP3K1 (GeneID 4214),0.29,1.36,inactive
MAP3K1 (GeneID 4214),0.3,2.06,inactive
ASAP3 (GeneID 55616),0.22,1.21,inactive
PADI3 (GeneID 51702),0.96,0.87,inactive
TRAF7 (GeneID 84231),0.66,0.44,inactive
POGLUT2 (GeneID 79070),0.19,1.9,active
TFCP2 (GeneID 7024),1.37,0.99,inactive
H3-3A (GeneID 3020),0.87,0.26,inactive
